In PMC4295872:
These are yes or no findings as the source states them, for the method shown. Some results given as binding are weak or reduced against the parent protein; the word gives no strength.

By UniProt entry, the sequences of proteins in these tests, tags left out.
UniProt Q14790: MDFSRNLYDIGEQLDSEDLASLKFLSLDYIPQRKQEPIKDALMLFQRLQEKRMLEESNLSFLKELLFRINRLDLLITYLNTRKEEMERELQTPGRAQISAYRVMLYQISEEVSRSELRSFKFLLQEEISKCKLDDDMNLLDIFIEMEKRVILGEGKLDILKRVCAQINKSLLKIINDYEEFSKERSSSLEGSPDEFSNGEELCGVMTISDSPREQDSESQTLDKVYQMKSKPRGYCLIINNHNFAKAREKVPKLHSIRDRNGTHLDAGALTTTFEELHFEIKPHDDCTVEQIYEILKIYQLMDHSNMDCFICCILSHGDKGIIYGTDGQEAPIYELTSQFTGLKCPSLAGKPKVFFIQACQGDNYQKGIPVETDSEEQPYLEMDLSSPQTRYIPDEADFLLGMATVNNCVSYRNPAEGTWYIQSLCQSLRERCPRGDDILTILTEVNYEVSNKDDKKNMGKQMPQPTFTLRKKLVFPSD
UniProt P31749: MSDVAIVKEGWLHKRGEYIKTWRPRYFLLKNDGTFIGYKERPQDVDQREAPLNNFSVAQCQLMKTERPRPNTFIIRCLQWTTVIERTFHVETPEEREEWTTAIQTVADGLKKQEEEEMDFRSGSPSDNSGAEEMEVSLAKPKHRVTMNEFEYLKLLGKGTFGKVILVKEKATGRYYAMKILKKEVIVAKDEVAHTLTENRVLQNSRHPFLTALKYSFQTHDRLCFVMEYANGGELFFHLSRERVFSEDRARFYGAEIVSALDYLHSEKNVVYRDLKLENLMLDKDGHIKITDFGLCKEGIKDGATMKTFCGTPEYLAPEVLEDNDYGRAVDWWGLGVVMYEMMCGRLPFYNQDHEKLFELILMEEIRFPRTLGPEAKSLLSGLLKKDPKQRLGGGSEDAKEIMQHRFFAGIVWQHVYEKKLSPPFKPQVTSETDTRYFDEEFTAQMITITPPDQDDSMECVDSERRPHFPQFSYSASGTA

B1: proteasome 26S subunit ATPase 3 interacting protein (PSMC3IP) (protein, UniProt Q9P2W1 1-217)
chain: MSKGRAEAAAGAAGILLRYLQEQNRPYSSQDVFGNLQREHGLGKAVVVKTLEQLAQQGKIKEKMYGKQKIYFADQDQFDMVSDADLQVLDGKIVALTAKVQSLQQSCRYMEAELKELSSALTTPEMQKEIQELKKECAGYRERLKNIKAATNHVTPEEKEQVYRERQKYCKEWRKRKRMATELSDAILEGYPKSKKQFFEEVGIETDEDYNVTLPDP
B2: epithelial-stromal interaction 1 (EPSTI1) (protein, UniProt Q96J88 1-318)
chain: MNTRNRVVNSGLGASPASRPTRDPQDPSGRQGELSPVEDQREGLEAAPKGPSRESVVHAGQRRTSAYTLIAPNINRRNEIQRIAEQELANLEKWKEQNRAKPVHLVPRRLGGSQSETEVRQKQQLQLMQSKYKQKLKREESVRIKKEAEEAELQKMKAIQREKSNKLEEKKRLQENLRREAFREHQQYKTAEFLSKLNTESPDRSACQSAVCGPQSSTWKLPILPRDHSWARSWAYRDSLKAEENRKLQKMKDEQHQKSELLELKRQQQEQERAKIHQTEHRRVNNAFLDRLQGKSQPGGLEQSGGCWNMNSGNSWGI

How the values were obtained:
[1] = target: T1, breast cancer anti-estrogen resistance 3 (BCAR3) (human) (UniProt O75815); experiment: two-hybrid; pairwise matrix Y2H in MaV203 yeast; baits (BC-apoptosis genes) in pDEST32, preys (PSMC3IP, EPSTI1) in pDEST22; reporters HIS3 (3AT), URA3, HIS3/URA3 and LacZ; high-confidence = at least two reporters or repeated in biological replica screens
T1 sequence: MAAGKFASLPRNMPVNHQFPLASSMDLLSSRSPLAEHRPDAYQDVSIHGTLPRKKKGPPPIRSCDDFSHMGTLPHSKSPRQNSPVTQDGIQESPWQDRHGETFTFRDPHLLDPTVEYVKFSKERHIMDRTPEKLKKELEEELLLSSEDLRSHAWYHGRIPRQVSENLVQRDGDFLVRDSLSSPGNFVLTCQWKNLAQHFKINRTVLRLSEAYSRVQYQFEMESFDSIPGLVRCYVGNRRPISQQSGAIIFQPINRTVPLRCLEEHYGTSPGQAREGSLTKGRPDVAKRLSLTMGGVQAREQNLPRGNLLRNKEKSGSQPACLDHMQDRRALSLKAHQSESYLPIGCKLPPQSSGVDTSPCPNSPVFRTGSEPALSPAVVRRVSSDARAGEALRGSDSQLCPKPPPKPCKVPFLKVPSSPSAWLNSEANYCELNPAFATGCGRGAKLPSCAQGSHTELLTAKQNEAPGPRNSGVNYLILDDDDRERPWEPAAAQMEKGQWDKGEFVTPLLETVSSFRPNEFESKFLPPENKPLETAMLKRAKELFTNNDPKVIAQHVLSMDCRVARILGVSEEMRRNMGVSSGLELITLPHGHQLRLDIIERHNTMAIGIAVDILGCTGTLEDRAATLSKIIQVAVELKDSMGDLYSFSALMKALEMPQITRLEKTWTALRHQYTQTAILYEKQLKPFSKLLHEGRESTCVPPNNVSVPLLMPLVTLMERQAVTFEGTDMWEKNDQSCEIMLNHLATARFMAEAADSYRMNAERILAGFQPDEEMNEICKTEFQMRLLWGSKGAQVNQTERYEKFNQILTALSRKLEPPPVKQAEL

[2] = target: caspase 8 (CASP8) (human) (UniProt Q14790); experiment: as above
AKT1 (human) = AKT1 (human) (UniProt P31749); experiment: two-hybrid; reported as 'unpublished data'; told within the Y2H results, AKT1 cloned as a Y2H bait

Row | Binder | binding [1] | binding [2] | binding (AKT1 (human))
1 | B1 | binds | binds | 
2 | B2 | binds | binds | binds
